Experimental data: US20250368753A1
Results are given in words; binding and its absence hold for the method and conditions named. Binding can be weak; no strength is given.

Amino acid sequences for entries named in this document (tags omitted). A change or cut given only in a name is not applied to a line headed by its entry.
UniProt Q8NBP7: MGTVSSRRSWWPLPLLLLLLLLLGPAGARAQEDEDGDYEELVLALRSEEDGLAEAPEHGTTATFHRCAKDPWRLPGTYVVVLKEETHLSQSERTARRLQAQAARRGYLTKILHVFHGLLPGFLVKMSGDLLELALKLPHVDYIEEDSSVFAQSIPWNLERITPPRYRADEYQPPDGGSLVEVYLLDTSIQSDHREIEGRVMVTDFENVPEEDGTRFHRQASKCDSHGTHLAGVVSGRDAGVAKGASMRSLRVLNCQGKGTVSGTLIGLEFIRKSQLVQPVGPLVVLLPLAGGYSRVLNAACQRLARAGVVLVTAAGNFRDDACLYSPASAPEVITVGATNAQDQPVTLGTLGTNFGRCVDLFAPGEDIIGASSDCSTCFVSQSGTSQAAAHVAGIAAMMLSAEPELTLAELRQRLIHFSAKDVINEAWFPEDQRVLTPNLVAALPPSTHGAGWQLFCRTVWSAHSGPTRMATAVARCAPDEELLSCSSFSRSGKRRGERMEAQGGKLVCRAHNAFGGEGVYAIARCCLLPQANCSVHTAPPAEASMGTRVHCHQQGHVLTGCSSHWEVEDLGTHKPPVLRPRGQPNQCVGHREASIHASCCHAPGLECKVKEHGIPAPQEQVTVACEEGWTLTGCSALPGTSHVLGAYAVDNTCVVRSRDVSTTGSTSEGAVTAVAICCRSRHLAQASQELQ

Molecular target: proprotein convertase subtilisin/kexin type 9 (PCSK9) (human) (UniProt Q8NBP7)
Experiment: DELFIA immunoassay (PerkinElmer Cat. #1244-330)

B1: Reference Antibody (antibody, V domains shown)
VH: QVQLVQSGAEVKKPGASVKVSCKASGYTFTSYYMHWVRQAPGQGLEWMGEISPFGGRTNYNEKFKSRVTMTRDTSTSTVYMELSSLRSEDTAVYYCARERPLYASDLWGQGTTVTVSS
VL: DIQMTQSPSSLSASVGDRVTITCRASQGISSALAWYQQKPGKAPKLLIYSASYRYTGVPSRFSGSGSGTDFTFTISSLQPEDIATYYCQQRYSLWRTFGQGTKLEIK
  binding: binds
